The subject of the assay is L1210 leukemia ip in BDF1 mice, survival T/C. The experiment in a line: NCI In Vivo Anticancer Drug Screen. Data for tumor model L1210 Leukemia (intraperitoneal) in B6D2F1 (BDF1) mice. Conditions: T/C endpoint: mean survival time, higher T/C = longer survival.
Where [1] appears, read: dose: 200.0 mg/kg/injection, schedule: Q01DX009 (ip), vehicle: Klucel (hydroxypropylcellulose) (HPC).
The mark [2] stands for this setting: dose: 100.0 mg/kg/injection, schedule: Q01DX009 (ip), vehicle: saline.
Where [3] appears, read: dose: 200.0 mg/kg/injection, schedule: Q01DX009 (ip), vehicle: saline.
The mark [4] stands for this setting: dose: 400.0 mg/kg/injection, schedule: Q01DX009 (ip), vehicle: Klucel (hydroxypropylcellulose) (HPC).
Setting [5] is: dose: 60.0 mg/kg/injection, schedule: Q01DX001 (ip), vehicle: carboxymethylcellulose (CMC).
[6] abbreviates: dose: 200.0 mg/kg/injection, schedule: Q01DX001 (ip), vehicle: saline.
[7] abbreviates: dose: 200.0 mg/kg/injection, schedule: Q04DX003 (ip), vehicle: saline.
Where [8] appears, read: dose: 400.0 mg/kg/injection, schedule: Q01DX001 (ip), vehicle: saline.

Structures are written as SMILES. The list is a part of this screen's results and no random one: it is rich in T/C values a quarter to a half above the control, in often repeated tests (any T/C) and in doses without a T/C. Further doses and runs are listed elsewhere. T/C gives the treated animals as a percentage of the vehicle group. Some entries give survivors of the animals treated and no T/C: the source files T/C as zero there, which appears to mark a toxic dose or a test without result, not a measured value. Some doses without a T/C left all or most animals alive at the check, yet need not have been tolerated: the source hardly ever lists a survival T/C far under the control, and the zero likely stands for such cases as well. Survivors were counted at the toxicity check, usually on the fifth day, unless a day is given; later deaths do not show. Schedules are NCI's codes, taken here to give the interval after Q, in days (D) or hours (H), and the number of doses after X. Some entries hold several experiments; the results are listed from low to high. Where survival is the endpoint, this PubChem deposit counts one and a half times the control or more as active, and values a quarter to a half above the control carry no call in these data; other NCI protocols may use other cut-offs. Some T/C values carry the count of animals alive at the toxicity check (mostly the fifth day); without a count, all were alive then.

Consider `CCN(C)N=Nc1cccnc1`, for which the T/C runs as follows: (dose: 33.0 mg/kg/injection, schedule: Q01DX009 (ip), vehicle: saline) 131 % of control; (dose: 50.0 mg/kg/injection, schedule: Q01DX009 (ip), vehicle: saline with Tween-80) 141 % of control. Moreover, the survivor count is reported as 2 of 6 (dose: 75.0 mg/kg/injection, schedule: Q01DX009 (ip), vehicle: saline) and 0 of 6 (dose: 113.0 mg/kg/injection, schedule: Q01DX009 (ip), vehicle: saline).
Consider `CCCCCCNC(=O)c1ccc(C(=O)NCCCCCC)cc1`, for which the survivor count under setting [1] is recorded as 6 of 6.
As to `CCCCC(=O)N(C(C)C)C(C)C`, the survivor count (dose: 200.0 mg/kg/injection, schedule: Q01DX009 (ip), vehicle: carboxymethylcellulose (CMC)) is 0 of 3 and 2 of 6; the survivor count (dose: 400.0 mg/kg/injection, schedule: Q04DX002 (ip), vehicle: carboxymethylcellulose (CMC)) was 0 of 6 and 1 of 3.
`c1c(NC2=NCCO2)cc2c3c1CCCN3CCC2`: the survivor count under setting [2] was 3 of 6 and the survivor count under setting [3] is 3 of 6.
Regarding `COc1cc(C[C@H]2c3cc(OC)c(OC)cc3CCN2C)c(Oc2cc3c(cc2OC)-c2c(OC)c(OC)cc4c2[C@H](C3)N(C)CC4)cc1OC`, the survivor count reads like this: (dose: 200.0 mg/kg/injection, schedule: Q01DX009 (ip), vehicle: clinical formulation) 6 of 10; (dose: 320.0 mg/kg/injection, schedule: Q01DX015 (ip), vehicle: carboxymethylcellulose (CMC)) 1 of 4; (dose: 400.0 mg/kg/injection, schedule: Q01DX009 (ip), vehicle: clinical formulation) 0 of 10; (dose: 432.0 mg/kg/injection, schedule: Q08DX002 (ip), vehicle: other) 5 of 10; (dose: 576.0 mg/kg/injection, schedule: Q04DX003 (ip), vehicle: other) 1 of 10; (dose: 864.0 mg/kg/injection, schedule: Q08DX002 (ip), vehicle: other) 0 of 10.
Consider `NC(=O)c1cn(C2OC(CO)C(O)C2O)c2ncnc(N)c2c1=O` (configuration not stated), for which the survivor count (dose: 100.0 mg/kg/injection, schedule: Q01DX005 (ip), vehicle: saline) is 2 of 6 and the survivor count (dose: 200.0 mg/kg/injection, schedule: Q01DX005 (ip), vehicle: saline) is listed as 0 of 6.
Take `C=CCNC(=S)Nc1cccc(Cl)c1C`: the survivor count is, setting by setting: (dose: 100.0 mg/kg/injection, schedule: Q01DX009 (ip), vehicle: Klucel (hydroxypropylcellulose) (HPC)) 6 of 6; under setting [1], 6 of 6; under setting [4], 0 of 6.
Regarding `CCCCCCCCCCCCCCCC[n+]1ccc(/C=C/c2ccccc2)cc1`, the survivor count reads like this: (dose: 15.0 mg/kg/injection, schedule: Q01DX001 (ip), vehicle: carboxymethylcellulose (CMC)) 6 of 6; (dose: 30.0 mg/kg/injection, schedule: Q01DX001 (ip), vehicle: carboxymethylcellulose (CMC)) 2 of 6; under setting [5], 0 of 6; (dose: 75.0 mg/kg/injection, schedule: Q01DX001 (ip), vehicle: carboxymethylcellulose (CMC)) 0 of 6; (dose: 150.0 mg/kg/injection, schedule: Q01DX001 (ip), vehicle: carboxymethylcellulose (CMC)) 0 of 6; (dose: 300.0 mg/kg/injection, schedule: Q01DX001 (ip), vehicle: carboxymethylcellulose (CMC)) 0 of 6.
For the compound `O=C(OCCOCCN1CCCCC1)N1c2ccccc2Sc2cccnc21`, the survivor count under setting [2] is 2 of 6; the survivor count under setting [6] is recorded as 0 of 4; the survivor count under setting [7] is listed as 0 of 4; the survivor count under setting [8] is on record as 0 of 4; the survivor count (dose: 400.0 mg/kg/injection, schedule: Q04DX003 (ip), vehicle: saline) is 0 of 4.
Turning to `CCCCCOS(=O)(=O)c1ccc(Cl)c([N+](=O)[O-])c1`, the survivor count (dose: 100.0 mg/kg/injection, schedule: Q04DX003 (ip), vehicle: saline with Tween-80) is on record as 3 of 6.
For `Cc1cc(N(CCCl)CCCl)c(C)cc1NC(=O)c1ccccc1`, the T/C is, setting by setting: (dose: 6.0 mg/kg/injection, schedule: Q01DX009 (ip), vehicle: other) 128 and 136 % of control; (dose: 10.0 mg/kg/injection, schedule: Q01DX009 (ip), vehicle: other) 139 % of control [5 of 6 alive]; (dose: 18.0 mg/kg/injection, schedule: Q01DX009 (ip), vehicle: other) 143 % of control; (dose: 26.0 mg/kg/injection, schedule: Q01DX001 (ip), vehicle: other) 127 % of control; (dose: 40.0 mg/kg/injection, schedule: Q01DX001 (ip), vehicle: carboxymethylcellulose (CMC)) 125 % of control; (dose: 40.0 mg/kg/injection, schedule: Q01DX001 (ip), vehicle: other) 125 and 131 % of control. In addition, the T/C is 131 % of control under setting [5]; 130 and 147 % of control (dose: 60.0 mg/kg/injection, schedule: Q01DX001 (ip), vehicle: other); 125 % of control (dose: 80.0 mg/kg/injection, schedule: Q01DX001 (ip), vehicle: other). The survivor count was 5 of 6 (dose: 100.0 mg/kg/injection, schedule: Q01DX001 (ip), vehicle: other); 6 of 6 (dose: 200.0 mg/kg/injection, schedule: Q01DX001 (ip), vehicle: other); 0 of 6 (dose: 400.0 mg/kg/injection, schedule: Q01DX001 (ip), vehicle: other).
Regarding `CCNc1ccc([N+](=O)[O-])cn1`, the survivor count under setting [4] is on record as 5 of 6.
Take `COc1nc(=O)n(C2CCCO2)cc1I` (configuration not stated): the survivor count under setting [8] is on record as 1 of 4.
As to `Cn1c(=O)c2n[se]nc2n(C)c1=O`, the survivor count (dose: 12.5 mg/kg/injection, schedule: Q01DX009 (ip), vehicle: Klucel (hydroxypropylcellulose) (HPC)) is reported as 3 of 3; the survivor count (dose: 50.0 mg/kg/injection, schedule: Q04DX002 (ip), vehicle: Klucel (hydroxypropylcellulose) (HPC)) is 0 of 3; the survivor count (dose: 100.0 mg/kg/injection, schedule: Q04DX002 (ip), vehicle: Klucel (hydroxypropylcellulose) (HPC)) was 0 of 3; the survivor count (dose: 200.0 mg/kg/injection, schedule: Q04DX002 (ip), vehicle: Klucel (hydroxypropylcellulose) (HPC)) is listed as 0 of 3; the survivor count (dose: 400.0 mg/kg/injection, schedule: Q04DX002 (ip), vehicle: Klucel (hydroxypropylcellulose) (HPC)) is 0 of 3.
With `O/C=C(\Cl)CCl`, the T/C (dose: 100.0 mg/kg/injection, schedule: Q04DX002 (ip), vehicle: saline) is given as 100, 103, 104, 113 % of control. In addition, the survivor count under setting [6] was 2 of 6; the survivor count under setting [3] was 1 of 6 and 1 of 3; the survivor count (dose: 200.0 mg/kg/injection, schedule: Q04DX002 (ip), vehicle: saline) is listed as 0 of 3, 1 of 6, 1 of 3, 3 of 6; the survivor count under setting [7] is recorded as 2 of 6; the survivor count (dose: 400.0 mg/kg/injection, schedule: Q04DX002 (ip), vehicle: saline) is 0 of 3 and 0 of 6.
As for `CCCCOCCCNC1=C(Cl)C(=O)c2ccccc2C1=O`, the survivor count is, setting by setting: (dose: 100.0 mg/kg/injection, schedule: Q01DX001 (ip), vehicle: carboxymethylcellulose (CMC)) 0 of 4; (dose: 200.0 mg/kg/injection, schedule: Q01DX001 (ip), vehicle: carboxymethylcellulose (CMC)) 0 of 4; (dose: 400.0 mg/kg/injection, schedule: Q01DX001 (ip), vehicle: carboxymethylcellulose (CMC)) 0 of 4.
Turning to `S=P(c1ccccc1)(N1CCN(c2ccc(Cl)cc2)CC1)N1CCN(c2ccc(Cl)cc2)CC1`, the survivor count is, setting by setting: under setting [6], 6 of 6; (dose: 200.0 mg/kg/injection, schedule: Q04DX003 (ip), vehicle: Klucel (hydroxypropylcellulose) (HPC)) 6 of 6.
